PubChem BioAssay AID1259308 | NCATS | 2017

Purpose: 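Candidate targets for better recombinant protein yield in mammalian cells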 (primary screen)
Cells: human HEK293 embryonic kidney cells stably expressing firefly luciferase (HEK-CMV-Luc2-Hygro)
Reagent: single siRNA against human genes, 0.8 pmol siRNA per well
Duration: 72 h
Measured: 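Luciferase light (ONE-Glo) measured on one replicate plate set and viability (CellTiter-Glo) on the other, scaled to a negative control siRNA, with robust z-scores and luciferase per cell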
Direction: total luciferase, z-score and total luciferase, % of control: higher = more reporter protein produced; luciferase per cell, z-score: higher = more reporter output per viable cell; viable cells, % of control: higher = more viable cells
Hit rule: 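Active when the median/MAD z-score for overall luciferase is greater than 3; a gene was taken forward for validation with new siRNAs if at least two of its three siRNAs passed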
Calls: active = raised luciferase; inactive = no rise
Here is a random part of about 59,000 reagents tested. In the full data, about 1,510 (2.6%) were called active. 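Calls use total luciferase alone and ignore viability, so some active siRNAs may act by altering cell number.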 Unmarked entries are inactive. Reagents against one gene are numbered here.

no.	Gene	reagent no.	total luciferase, z-score	total luciferase, % of control	luciferase per cell, z-score	viable cells, % of control
1	SRARP	1	0.153	84.9	-0.124	98.1
2	SRARP	2	0.327	88.4	0.894	78.1
3	SRARP	3	-0.345	75	-0.618	98.6
4	LVRN	1	-0.834	65.3	-0.644	86.4
5	LVRN	2	0.171	85.3	-0.45	107
6	LVRN	3	-1.79	46.3	-2	87.6
7	CX3CL1	1	-0.0237	81.4	-0.442	102
8	CX3CL1	2	0.155	85	0.246	89
9	CX3CL1	3	-0.019	81.5	0.0805	89.2
10	ZNF385A	1	-1.4	54	-1.39	87
11	ZNF385A	2	0.702	95.8	1.46	73
12	ZNF385A	3	-2.44	33.4	-2.39	70
13	EVI2B	1	-1.7	48	-1.19	73.4
14	EVI2B	2	-0.953	62.9	0.745	57.8
15	EVI2B	3	-1.03	61.5	1.4	47.5
16	USPL1	1	3.14 (active)	144	3.82	58.9
17	USPL1	2	2.43	130	3.14	63.6
18	USPL1	3	2.96	141	3.48	62.9
19	RPSAP22	1	-0.0744	80.4	-0.577	105
20	RPSAP22	2	0.0137	82.2	-0.119	94.7
21	RPSAP22	3	-0.232	77.3	-0.691	104
22	LOC730179 (retired record)	1	-0.708	67.8	-1.2	104
23	LOC730179 (retired record)	2	1.83	118	1.67	85.1
24	LOC730179 (retired record)	3	1.99	121	1.47	92.1
25	LRRC37A4P	1	-0.343	75.1	0.363	76.2
26	LRRC37A4P	2	-0.776	66.5	-0.858	93.1
27	LRRC37A4P	3	3.93 (active)	160	2.93	82.8
28	COQ10A	1	0.762	97	0.742	89.2
29	COQ10A	2	0.374	89.3	0.517	87.1
30	COQ10A	3	-0.367	74.6	-0.247	88.9
31	YY1AP1	1	1.94	121	2.38	71.9
32	YY1AP1	2	0.294	87.7	0.814	79.1
33	YY1AP1	3	-0.427	73.4	-0.83	102
34	TBCA	1	1.56	113	1.65	81.6
35	TBCA	2	-0.168	78.6	-0.0672	89.3
36	TBCA	3	0.891	99.6	0.321	102
37	OR2H1	1	-0.039	81.1	-0.211	95.8
38	OR2H1	2	0.136	84.6	-0.518	108
39	OR2H1	3	-0.386	74.2	-0.304	89.8
40	ARL4C	1	2.18	125	1.46	95.3
41	ARL4C	2	-1.69	48.3	-1.9	89
42	ARL4C	3	-0.101	79.9	-0.417	99.6
43	MMD2	1	0.383	89.5	-0.00315	100
44	MMD2	2	-1.05	61	-0.984	88.3
45	MMD2	3	-1.38	54.3	-1.36	86.9
46	AHI1	1	0.583	93.5	-0.101	107
47	AHI1	2	0.878	99.3	1.41	76.7
48	AHI1	3	-0.945	63.1	-1.29	99.1
49	BTF3P16	1	0.513	92.1	0.175	98.3
50	BTF3P16	2	-1.24	57.1	-0.98	82.6
51	BTF3P16	3	1.76	117	1.17	96.1
52	GAB3	1	0.893	99.6	0.142	107
53	GAB3	2	1.15	105	0.994	90
54	GAB3	3	1.14	105	1.21	85
55	MYH1	1	0.343	88.7	0.277	92.2
56	MYH1	2	-0.921	63.6	-0.747	86.5
57	MYH1	3	-0.886	64.3	-0.871	90.3

An excerpt from above, limited to “viable cells, % of control”:
YY1AP1 #2	79.1
YY1AP1 #3	102
TBCA #1	81.6
TBCA #2	89.3
